Values from PubChem BioAssay AID1259275 (Sanger Institute, 2017)
In all, the deposit lists 794 reagents; below is an unselected part. 13 of them (1.6%) were called active. 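Calls mark knock-downs lethal by themselves, not drug synergy; drugs went in a day after transfection, with DMSO as vehicle.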 A number with no mark means an inactive call. No viability above 1 is reported: the scale is capped. Reagent sequences are not shown. Not given: the amount of reagent, the time to read-out.

Aim: 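Kinome and custom colorectal gene library screened for lethal knock-downs and drug partners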 (primary screen)
System: COLO320HSR human colorectal cancer cells
Reagents: siRNA pool against human genes
Treatment: anchor drug added one day after transfection: BYL719 at 1 µM, cetuximab at 5 µg/ml or trametinib at 10 nM; DMSO as vehicle arm
Read-out: 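Viability averaged over replicates as a fraction of the non-targeting pool, a robust z-score for knock-down alone, and synergy scores with BYL719 (1 µM), cetuximab (5 µg/ml) or trametinib (10 nM)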
Direction: robust z-score, siRNA alone: higher = more viable cells; strongly negative means essential; viability, knock-down alone (DMSO): higher = more viable cells; synergy score with BYL719 and synergy score with cetuximab and synergy score with trametinib: higher = stronger combined killing with drug
Rule for the call: 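a gene is called essential when its robust z-score without drug falls below -3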
Meaning of the calls: active = essential (siRNA alone); inactive = no change (siRNA alone)

The opening 6 records, ahead of the listing:
gene | robust z-score, siRNA alone | viability, knock-down alone (DMSO) (fraction of control) | synergy score with BYL719 | synergy score with cetuximab | synergy score with trametinib
KIT (KIT proto-oncogene, receptor tyrosine kinase) | 0.551 | 0.984 | -0.122 | -0.0878 | 0.00352
ALPK1 (alpha kinase 1) | 0.196 | 0.952 | -0.0426 | -0.115 | -0.0725
RIOK3 (RIO kinase 3) | -0.524 | 0.887 | -0.0439 | -0.125 | -0.00664
EIF2AK4 (eukaryotic translation initiation factor 2 alpha kinase 4) | -0.209 | 0.916 | -0.211 | -0.0654 | -0.0862
EPHB6 (EPH receptor B6) | 0.726 | 1 | -0.106 | -0.0893 | -0.0259
DGKB (diacylglycerol kinase beta) | -2.46 | 0.712 | -0.112 | -0.104 | -0.153

The list itself, from the start:
gene | robust z-score, siRNA alone | viability, knock-down alone (DMSO) (fraction of control) | synergy score with BYL719 | synergy score with cetuximab | synergy score with trametinib
KIT (KIT proto-oncogene, receptor tyrosine kinase) | 0.551 | 0.984 | -0.122 | -0.0878 | 0.00352
ALPK1 (alpha kinase 1) | 0.196 | 0.952 | -0.0426 | -0.115 | -0.0725
RIOK3 (RIO kinase 3) | -0.524 | 0.887 | -0.0439 | -0.125 | -0.00664
EIF2AK4 (eukaryotic translation initiation factor 2 alpha kinase 4) | -0.209 | 0.916 | -0.211 | -0.0654 | -0.0862
EPHB6 (EPH receptor B6) | 0.726 | 1 | -0.106 | -0.0893 | -0.0259
DGKB (diacylglycerol kinase beta) | -2.46 | 0.712 | -0.112 | -0.104 | -0.153
CDKN1B (cyclin dependent kinase inhibitor 1B) | 0.726 | 1 | -0.225 | -0.0893 | -0.0173
PDGFRL (platelet derived growth factor receptor like) | 0.726 | 1 | 0.0382 | -0.0893 | -0.0259
PI4KA (phosphatidylinositol 4-kinase alpha) | 0.726 | 1 | -0.0694 | 0.00525 | -0.00499
MSR1 (macrophage scavenger receptor 1) | 0.435 | 0.974 | -0.229 | -0.105 | 0.00977
MAP3K5 (mitogen-activated protein kinase kinase kinase 5) | 0.726 | 1 | -0.217 | -0.0893 | -0.0259
NEK9 (NIMA related kinase 9) | 0.605 | 0.989 | -0.163 | -0.0993 | -0.0366
XYLB (xylulokinase) | 0.726 | 1 | -0.177 | -0.0212 | 0.109
MAP2K4 (mitogen-activated protein kinase kinase 4) | 0.513 | 0.981 | -0.0331 | -0.0366 | -0.0446
TBX3 (T-box transcription factor 3) | 0.602 | 0.989 | -0.21 | -0.0995 | -0.0232
COASY (Coenzyme A synthase) | 0.0974 | 0.943 | 0.0331 | -0.141 | 0.0429
DYRK1A | 0.726 | 1 | -0.0163 | 0.0249 | -0.0259
NRBP1 (nuclear receptor binding protein 1) | 0.726 | 1 | -0.244 | -0.0893 | -0.0259
FER (FER tyrosine kinase) | 0.726 | 1 | -0.25 | -0.0893 | -0.0259
STKLD1 (serine/threonine kinase like domain containing 1) | 0.726 | 1 | -0.0668 | -0.0621 | -0.0259
CSNK1G2 (casein kinase 1 gamma 2) | 0.604 | 0.989 | -0.066 | -0.0994 | 0.0206
BCR (BCR activator of RhoGEF and GTPase) | -1.12 | 0.833 | -0.0622 | -0.147 | -0.114
PIK3R5 (phosphoinositide-3-kinase regulatory subunit 5) | -0.291 | 0.908 | -0.0981 | -0.173 | -0.0349
UHMK1 (U2AF homology motif kinase 1) | -1.75 | 0.777 | -0.169 | -0.0128 | -0.138
PRKG1 (protein kinase cGMP-dependent 1) | 0.726 | 1 | 0.0245 | -0.0893 | -0.0238
ROR2 (ROR family WNT receptor 2) | 0.726 | 1 | -0.12 | -0.0893 | -0.0259
MAP3K4 (mitogen-activated protein kinase kinase kinase 4) | 0.355 | 0.966 | -0.155 | -0.0442 | -0.035
MAP3K21 (mitogen-activated protein kinase kinase kinase 21) | 0.726 | 1 | -0.0611 | 0.035 | -0.0259
TPK1 (thiamin pyrophosphokinase 1) | -1.26 | 0.821 | 0.0666 | 0.0148 | -0.15
PRKY (protein kinase Y-linked (pseudogene)) | -0.51 | 0.888 | -0.162 | -0.191 | -0.0224
FGFR4 (fibroblast growth factor receptor 4) | 0.726 | 1 | -0.125 | -0.0893 | 0.0037
RELA (RELA proto-oncogene, NF-kB subunit) | 0.0121 | 0.936 | -0.00249 | -0.106 | -0.0489
NAGK (N-acetylglucosamine kinase) | -0.894 | 0.854 | -0.144 | -0.0611 | 0.106
BRD4 (bromodomain containing 4) | -2.41 | 0.717 | 0.0361 | -0.0603 | -0.0203
EPHB4 (EPH receptor B4) | 0.361 | 0.967 | -0.274 | -0.119 | -0.0254
CKS2 (CDC28 protein kinase regulatory subunit 2) | 0.726 | 1 | -0.227 | 0.0344 | -0.0259
DGKH (diacylglycerol kinase eta) | 0.677 | 0.996 | 0.0314 | -0.0344 | 0.0198
TBK1 (TANK binding kinase 1) | 0.0333 | 0.937 | -0.121 | -0.0322 | -0.0248
MGA (MAX dimerization protein MGA) | -1.25 | 0.822 | -0.159 | 0.0841 | 0.0161
PRKX (protein kinase cAMP-dependent X-linked catalytic subunit) | 0.726 | 1 | -0.189 | -0.0893 | -0.0259
PCK1 (phosphoenolpyruvate carboxykinase 1) | 0.726 | 1 | 0.0192 | 0.0475 | -0.0259
DCLK1 (doublecortin like kinase 1) | 0.726 | 1 | -0.123 | -0.0893 | -0.0259
INSRR (insulin receptor related receptor) | -0.0427 | 0.931 | -0.151 | -0.14 | -0.0308
KSR1 (kinase suppressor of ras 1) | -2.27 | 0.729 | -0.0655 | -0.0836 | -0.119
NEK1 (NIMA related kinase 1) | -1.87 | 0.766 | -0.129 | -0.211 | -0.151
GAK (cyclin G associated kinase) | -0.0522 | 0.93 | -0.149 | -0.153 | -0.0944
CDK3 (cyclin dependent kinase 3) | -0.195 | 0.917 | 0.0508 | -0.122 | -0.0328
CAMK2B (calcium/calmodulin dependent protein kinase II beta) | -0.666 | 0.874 | -0.0562 | -0.0561 | -0.00989
FCSK (fucose kinase) | 0.224 | 0.955 | -0.113 | -0.131 | -0.0599
MOS (MOS proto-oncogene, serine/threonine kinase) | 0.151 | 0.948 | -0.123 | -0.0218 | 0.0746
